Crude mass and isolated mass data for three substances are collected here from US5464935 (dated 1995).

Data set [1] in a line: general procedure: Boc solid-phase peptide synthesis; 4-methyl benzhydrylamine resin; dicyclohexylcarbodiimide and hydroxybenzotriazole. The conditions noted are these: whole synthesis, scale 0.5 mmol.
A short description of data set [2]: general procedure: Boc solid-phase peptide synthesis; 4-methylbenzhydrylamine resin; dicyclohexylcarbodiimide and hydroxybenzotriazole. The conditions noted are these: whole synthesis, scale 0.5 mmol.

In data set [1], “Threonyl-tryptophyl-threonyl-tryptophyl-valine-amide” gave a crude mass of 287 mg and an isolated mass of 126 mg. The matching figures for “Lysyl-threonyl-tryptophyl-threonyl-tryptophyl-valine-amide”: 324 mg and 128 mg.

With “Asparaginyl-lysyl-threonyl-tryptophyl-threonyl-tryptophyl-valine-amide”, the isolated mass in data set [2] is 92 mg.
